{"source": "PubChem BioAssay AID493014", "about": "(National Center for Advancing Translational Sciences (NCATS), 2011)", "note": "The whole screen tested about 340,000 compounds, of which about 170 (0.05%) were called active. This list was built around the results that the source calls inconclusive (neither active nor inactive); the mix of calls is not that of the screen. Calls come from the whole dose curve; as a rule, active = well fitted inhibition curve with a large enough effect in the signal ratio, with a control signal flat (not every such curve was filed as active); inconclusive = small, poorly fitted or top-dose-only effect, or effect the other way, or a change in a side signal; inactive = flat fitted curve, though single readings scatter; the % refers to the signal ratio. Potencies of inconclusive entries are doubtful fits and often do not repeat. Potency is the fitted concentration of half-maximal effect."}
{"experiment": "qHTS Assay to Find Inhibitors of Chronic Active B-Cell Receptor Signaling;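 for activity change, negative = inhibition: plate controls were basal doxycycline-induced cells for no effect and cells given 10 µM MG132 for full effect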", "conditions": "ABC-DLBCL IkBa-CBG/CBR reporter, luminescence ratio (green luciferase fused to IkBa over red control in TMD8 lymphoma cells), 4 h; activity change, negative = inhibition: at 46.1 µM (top of the series) unless noted", "how_it_was_run": "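Doxycycline induced both beetle luciferases in TMD8 lymphoma cells; IKK-driven degradation limits the IkappaBalpha-fused green signal, while red luminescence normalises for cell number and nonspecific effects. Compounds tested up to 46 uM, 4 hrs.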"}
{"smiles": "O=C1OCc2cc(NS(=O)(=O)c3cccs3)ccc21", "activity change, negative = inhibition": "inactive"}
{"smiles": "CC(C)(C)NC[C@@H](O)COc1cccc2c1CCCC2=O", "activity change, negative = inhibition": "inconclusive: 4.98%"}
{"smiles": "COc1ccc(C(CNC(=O)c2cncc(Br)c2)N(C)C)cc1", "note": "(stereo not given)", "Potency": "inconclusive: 35.5 µM [falling, single point]"}
{"smiles": "COCCCNC(=O)C(=O)NCCCOC(C)C", "activity change, negative = inhibition": "inactive"}
{"smiles": "COc1ccc(-c2csc(NC(=O)CCN3C(=O)C4CC=CCC4C3=O)n2)cc1OC", "note": "(stereo not given)", "Potency": "inconclusive: 9.2 µM [falling, partial curve]"}
{"smiles": "Cc1ccc(NC(=O)CCc2c(C)nn(-c3ccc(N4CCCCC4)nn3)c2C)cc1F", "activity change, negative = inhibition": "inactive"}
{"smiles": "O=C1CC(c2ccccc2)=NN1c1ccc([N+](=O)[O-])cc1", "Potency": "inconclusive: 3.98 µM [rising, full curve, poor fit]"}
{"smiles": "COc1cccc(NC(=O)COC(=O)c2c(F)cccc2Cl)c1", "activity change, negative = inhibition": "inconclusive: -10.8%"}
{"smiles": "O=c1[nH]c(-c2ccc(-c3cccc(Cl)c3)o2)nc2ccccc12", "activity change, negative = inhibition": "inconclusive: -1.99%"}
{"smiles": "CC(C)(Oc1ccc(CCNC(=O)c2ccc(-c3ccc(Cl)cc3)o2)cc1)C(=O)O", "activity change, negative = inhibition": "inconclusive: -4.94%"}
{"smiles": "CCN(CC)c1ccc(-c2nc3cnccn3c2NC2CCCC2)cc1", "activity change, negative = inhibition": "inactive"}
{"smiles": "O=C(Cc1cccs1)NNC(=S)NC(=O)c1ccco1", "Potency": "inconclusive: 31.6 µM [rising, single point]"}
{"smiles": "O=C1C(=O)N(CC2COc3ccccc3O2)c2ccccc21", "note": "(stereo not given)", "activity change, negative = inhibition": "inconclusive: -2.65%"}
{"smiles": "CCN1CCN(Cc2ccc(NC(=O)Nc3ccccc3OC)cc2)CC1", "activity change, negative = inhibition": "inconclusive: -16.8%"}
{"smiles": "Cc1occc1C(=O)N/N=C/c1ccc(Cl)c([N+](=O)[O-])c1", "Potency": "inconclusive: 25.9 µM [falling, single point]"}
{"smiles": "CC(C)(C)S(=O)(=O)/C(C#N)=N/Nc1ccc(C#N)cc1", "activity change, negative = inhibition": "inconclusive: 18.8%"}
{"smiles": "COc1ccc(CNC(=O)C[C@H]2C(=O)N(c3ccccc3)C[C@@H]2Cc2ccccc2)cc1", "activity change, negative = inhibition": "inconclusive: -1.45%"}
{"smiles": "Cc1ccc(S(=O)(=O)N/N=C/c2cccc([N+](=O)[O-])c2)cc1", "Potency": "inconclusive: 18.4 µM [falling, single point]"}
{"smiles": "COCCN1CCN(C(=O)C2CCC(=O)N(Cc3ccccc3F)C2)CC1", "note": "(stereo not given)", "activity change, negative = inhibition": "inconclusive: -1.32%"}
{"smiles": "CCC(C)(C)n1nnnc1C(c1ccc(O)c(OC)c1)N1CCc2ccccc2C1", "note": "(stereo not given)", "activity change, negative = inhibition": "inconclusive: -17%"}
{"smiles": "CN1CCC(N(C)S(=O)(=O)c2ccc(NC(=O)COc3ccc(Br)cc3Cl)cc2)CC1", "Potency": "inconclusive: 29.1 µM [falling, single point]"}
{"smiles": "CCCCN(C)CCNC(=O)c1cc2c(-c3ccccc3F)nn(C)c2s1", "activity change, negative = inhibition": "inconclusive: -9.8%"}
{"smiles": "CC(=O)Nc1ccc(S(=O)(=O)N2c3ccccc3C(C)=CC2(C)C)cc1", "activity change, negative = inhibition": "inconclusive: -0.956%"}
{"smiles": "C(#CC12CC3CC(CC(C3)C1)C2)CN1CCOCC1", "activity change, negative = inhibition": "inactive"}
{"smiles": "Cc1ccc(CNC(=O)c2c[nH]c3ccc(S(=O)(=O)Nc4ccc(C(C)C)cc4)cc3c2=O)cc1", "activity change, negative = inhibition": "inconclusive: 24.8%"}
{"smiles": "COc1cc(Cl)c(C)cc1NC(=O)CN1CCCCCC1", "Potency": "inconclusive: 35.5 µM [falling, partial curve]"}
{"smiles": "Cc1ccc(/C=N/NC(=O)c2nnn(-c3nonc3N)c2C)o1", "activity change, negative = inhibition": "inconclusive: 12.6%"}
{"smiles": "CCCNc1nc(-c2ccccc2)c(C(=O)OCC)cc1C#N", "Potency": "inconclusive: 20.6 µM [falling, partial curve, poor fit]"}
{"smiles": "N#Cc1ccc(Cl)cc1NC(=O)COC(=O)c1ccc(S(=O)(=O)N2CCCC2)cc1", "Potency": "inconclusive: 4.11 µM [rising, single point]"}
{"smiles": "COc1ccc(CCNC(=O)c2ccc(COc3ccccc3OC)o2)cc1", "Potency": "inconclusive: 14.1 µM [falling, single point]"}
{"smiles": "CCC(Sc1nc2ccc(C)cc2[nH]1)C(=O)O", "note": "(stereo not given)", "activity change, negative = inhibition": "inconclusive: 11.7%"}
{"smiles": "COc1ccc2c(c1)c(=O)oc1cc(O)ccc12", "Potency": "inconclusive: 10 µM [rising, partial curve]"}
{"smiles": "C=CCN1C(=O)CSc2ccc(C(=O)NC3CCCCC3)cc21", "Potency": "inconclusive: 17.8 µM [falling, partial curve]"}
{"smiles": "COc1cc(C(C(=O)NC(C)(C)C)N(C(=O)CNC(=O)c2cccs2)c2cccnc2)cc(OC)c1OC", "note": "(stereo not given)", "activity change, negative = inhibition": "inconclusive: 9.44%"}
{"smiles": "COc1ccc(S(=O)(=O)NCC(c2cccs2)S(=O)(=O)c2ccc(C)cc2)cc1F", "note": "(stereo not given)", "activity change, negative = inhibition": "inactive"}
{"smiles": "Nn1c(SCc2cccc(Oc3ccccc3)c2)nnc1C(F)(F)F", "activity change, negative = inhibition": "inactive"}
{"smiles": "CCCc1nnc(NC(=O)C23CC4CC(CC(C4)C2)C3)s1", "activity change, negative = inhibition": "inconclusive: 0.524%"}
{"smiles": "O=C(Nc1ccccc1)C1=C[C@H](c2csc3ccccc23)C[C@H](OCCCCO)O1", "Potency": "inconclusive: 25.1 µM [falling, partial curve]"}
{"smiles": "Nc1nc(Cn2nnc(-c3ccccc3F)n2)nc(N2CCOCC2)n1", "Potency": "inconclusive: 20.6 µM [falling, single point]"}
{"smiles": "COc1ccc(C2NCCc3cc(OC)c(OC)cc32)cc1OC", "note": "(stereo not given)", "activity change, negative = inhibition": "inconclusive: -0.585%"}
{"smiles": "CCOC(=O)C1=C(c2ccccc2)OC(N)=C(C#N)C1c1ccc(Cl)s1", "note": "(stereo not given)", "activity change, negative = inhibition": "inconclusive: -3.33%"}
{"smiles": "CCCC(NC(=O)CCl)c1ccccc1", "note": "(stereo not given)", "activity change, negative = inhibition": "inconclusive: -19%"}
{"smiles": "COc1ccc(C(c2c(C)n(C)n(-c3ccccc3)c2=O)c2c(C)n(C)n(-c3ccccc3)c2=O)cc1OC", "activity change, negative = inhibition": "inconclusive: 0.58%"}
{"smiles": "Cc1ccc(N(Cc2cc(=O)[nH]c3ccccc23)C(=O)C(C)C)c(C)c1", "activity change, negative = inhibition": "inconclusive: -13.8%"}
{"smiles": "CCOC(=O)c1[nH]c2ccc(OC)cc2c1C", "activity change, negative = inhibition": "inconclusive: 2.17%"}
{"smiles": "O=c1cnn(Cc2ccc(Cl)c(Cl)c2)c2ccccc12", "activity change, negative = inhibition": "inactive"}
{"smiles": "O=C(Nc1ccc(Br)cc1)c1ccc(Br)c(S(=O)(=O)NCc2ccccc2)c1", "Potency": "inconclusive: 0.1 µM [falling, full curve, poor fit]"}
{"smiles": "CN1C(=O)C2(OCC(C)([N+](=O)[O-])CO2)c2ccccc21", "note": "(stereo not given)", "activity change, negative = inhibition": "inactive"}
{"smiles": "CCOC(=O)c1[nH]c(CSc2nnc(-c3ccncc3)n2CCOC)c(C(=O)OCC)c1C", "Potency": "inconclusive: 9.2 µM [rising, partial curve, poor fit]"}
{"smiles": "COc1ccc(CN(Cc2ccc(C(=O)O)cc2)C(=S)Nc2ccc(C)cc2)cc1OC", "activity change, negative = inhibition": "inconclusive: -27.8%"}
{"smiles": "COC(=O)c1[nH]c2cc(OC)ccc2c1NC(=O)CCN1CCN(c2ccccc2)CC1", "activity change, negative = inhibition": "inconclusive: -10.9%"}
{"smiles": "COc1ccc(C(c2c(O)nc[nH]c2=O)c2c(O)nc[nH]c2=O)cc1", "activity change, negative = inhibition": "inconclusive: 7.51%"}
{"smiles": "CC(C)(C)C1CCc2c(sc3c2C(=O)NC(c2ccco2)N3)C1", "note": "(stereo not given)", "activity change, negative = inhibition": "inconclusive: 28.6%"}
{"smiles": "c1csc(-c2nc3ccccc3s2)c1", "activity change, negative = inhibition": "inactive"}
{"smiles": "CCC(C)N(C(=O)COC(=O)CSc1ccc(C)c(C)c1)C1CCS(=O)(=O)C1", "note": "(stereo not given)", "activity change, negative = inhibition": "inconclusive: 0.28%"}
{"smiles": "CC(C)c1ccc(N2C(=O)/C(=C/N(C)C)SC2=S)cc1", "activity change, negative = inhibition": "inconclusive: 14.1%"}
{"smiles": "COc1ccc(CN2CCCCC2C)cc1C", "note": "(stereo not given)", "activity change, negative = inhibition": "inconclusive: 3.5%"}
{"smiles": "CCc1ccc2c(CN3CCc4ccccc43)cc(=O)oc2c1", "activity change, negative = inhibition": "inconclusive: -18.2%"}
{"smiles": "Cc1onc(-c2c(Cl)cccc2Cl)c1C(=O)Nc1nc(C(C)(C)C)cs1", "Potency": "inconclusive: 7.08 µM [rising, partial curve, poor fit]"}
{"smiles": "O=C(CN1C(=O)COc2ccccc2C1=O)c1ccc2c(c1)OCCO2", "activity change, negative = inhibition": "inactive"}
{"smiles": "CSc1ccccc1C(=O)C1CCCN(C(=O)NC(C)C)C1", "note": "(stereo not given)", "activity change, negative = inhibition": "inactive"}
{"smiles": "CCC(C)COC(=O)c1ccc(C(=O)O)cc1", "note": "(stereo not given)", "Potency": "inconclusive: 35.5 µM [rising, partial curve, poor fit]"}
{"smiles": "Cc1cc(NC(=O)c2nn3cccnc3c2Cl)no1", "activity change, negative = inhibition": "inconclusive: 15.2%"}
{"smiles": "c1ccc2c(c1)Cn1c-2nc2ccccc21", "activity change, negative = inhibition": "inconclusive: 15.5%"}
{"smiles": "CCC(C)OC(=O)C[N+](C)(C)CCOC1CC2CCC1(C)C2(C)C", "note": "(stereo not given)", "Potency": "inconclusive: 20 µM [falling, single point]"}
{"smiles": "CCCC(=O)C1=C(O)C(C(=O)OC)C(C)(C)CC1=NCCc1ccc(OC)c(OC)c1", "note": "(stereo not given)", "activity change, negative = inhibition": "inconclusive: 12%"}
{"smiles": "COc1cc(/C=C2\\SC(=S)N(Nc3ncc(C(F)(F)F)cc3Cl)C2=O)ccc1O", "Potency": "inconclusive: 13 µM [rising, partial curve, poor fit]"}
{"smiles": "COc1cc(/C=C2/C(=O)N(c3ccc(C(=O)O)cc3)N=C2C)cc(OC)c1O", "Potency": "inconclusive: 17.8 µM [falling, partial curve]"}
{"smiles": "Cc1[nH]c2ccc(OCc3ccccc3)cc2c1CCN1C(=O)OC(C)(C)C1(C)O", "note": "(stereo not given)", "activity change, negative = inhibition": "inconclusive: 14.5%"}
{"smiles": "CN(C(=O)c1cccc(Nc2ccc(-c3ccc4c(c3)OCCO4)nn2)c1)C1CCCCC1", "activity change, negative = inhibition": "inconclusive: 7.16%"}
{"smiles": "COc1ccc(Br)cc1CNC(=O)CCC(=O)N1CCSc2ccccc21", "activity change, negative = inhibition": "inactive"}
{"smiles": "CCOC(=O)c1c(C)[nH]c(C)c1C(=O)CSc1nc2ccccc2n1CCC#N", "activity change, negative = inhibition": "inconclusive: 3.95%"}
{"smiles": "CC1=NNC(=O)C1CCC(=O)N/N=C(\\C)c1ccc(Cl)cc1", "note": "(stereo not given)", "Potency": "inconclusive: 15.8 µM [falling, partial curve, poor fit]"}
{"smiles": "CCOC(=O)C1CCN(c2ncnc3nc[nH]c23)CC1", "Potency": "inconclusive: 18.4 µM [falling, partial curve]"}
{"smiles": "Cc1ccc(-c2ccc(/C=N/NC(=O)c3ccccc3O)o2)cc1", "activity change, negative = inhibition": "inconclusive: 419%"}
{"smiles": "Cc1nonc1C(=O)N/N=C/c1ccc(O)cc1O", "activity change, negative = inhibition": "inconclusive: -20.8%"}
{"smiles": "COc1ccccc1N(CC(O)CN1CCOCC1)S(=O)(=O)c1ccccc1", "note": "(stereo not given)", "activity change, negative = inhibition": "inactive"}
{"smiles": "CC1CCCN(C(=S)Nc2ccc(F)cc2)C1", "note": "(stereo not given)", "activity change, negative = inhibition": "inconclusive: 1.38%"}
{"smiles": "Cc1c(Cl)cccc1NC(=S)NCCc1ccc(C(F)(F)F)cc1", "activity change, negative = inhibition": "inactive"}
{"smiles": "O=C(N[C@@H]1c2ccccc2CC[C@@H]1OCc1ccccc1)c1ccc(-c2ccccc2)cc1", "activity change, negative = inhibition": "inconclusive: 6.18%"}
